Data published in patent US8106017B2 (Caregen Co., Ltd., priority 2005, dated 2012).
The star is where a group is joined. Fmoc = O=C(OCC1c2ccccc2-c2ccccc21)*; Palmitoyl = CCCCCCCCCCCCCCCC(=O)*; For = O=C*

Assays:
[1] = general procedure: Fmoc solid-phase peptide synthesis; chloro trityl chloride resin (CTL resin, Nova Biochem 01-64-0021); Fmoc-Rink amide resin (Nova Biochem 01-64-0013); HoBt/Bop/DIEA; details: whole synthesis; for isolated yield: final yield; for isolated yield / final HPLC purity / crude yield: scale of the general procedure 1 mmole; for final HPLC purity: high performance liquid chromatography
[2] = general procedure: Fmoc solid-phase peptide synthesis; CTL resin; HoBt/Bop/DIEA; details: whole synthesis; for crude yield: scale of the general procedure 1 mmole
[3] = general procedure: Fmoc solid-phase peptide synthesis; Rink amide resin; HoBt/Bop/DIEA; details: whole synthesis

Row | Substance | crude mass [1] [g] | crude yield [1] [%] | also measured
1 | Ac-KLKKTETQ-NH2 | 0.87 | 85.6 | isolated mass [1]: 0.72 g; isolated yield [1]: 70.9%; final HPLC purity [1]: 96%
2 | Ac-KLKKTETQ-OH |  |  | crude mass [2]: 0.93 g; crude yield [2]: 91.4%; isolated mass [1]: 0.72 g; isolated yield [1]: 70.9%; final HPLC purity [1]: 96%
3 | Fmoc-KLKKTETQ-NH2 |  |  | crude mass [3]: 0.98 g; crude yield ([3]; scale of the general procedure 1 mmole): 81.9%
4 | Fmoc-KLKKTETQ-OH |  |  | crude mass [2]: 1.1 g; crude yield [2]: 91.9%
5 | For-KLKKTETQ-NH2 | 0.89 | 88.8 | 
6 | For-KLKKTETQ-OH | 0.88 | 87.7 | 
7 | Myristyl-Lys-Leu-Lys-Lys-Thr-Glu-Thr-Gln-NH2 | 0.98 | 81.6 | 
8 | Palmitoyl-KLKKTETQ-NH2 | 1.3 |  | 
9 | Palmitoyl-KLKKTETQ-OH | 1.4 |  | 
10 | Stearyl-Lys-Leu-Lys-Lys-Thr-Glu-Thr-Gln-NH2 | 1.02 | 81.2 | 
11 | Stearyl-Lys-Leu-Lys-Lys-Thr-Glu-Thr-Gln-OH | 1.1 | 87.5 | 
